Entries after “also recorded” stand apart in the source; their conditions may differ.
Tested on: NK92 cells
Assay: Quantitation of protein in NK92 cells by western blotting
Set-up: species or system human

Question: Which “protein expressed by 0.1×10^6 NK92 cells” value (Figure 4, representative blot, per 0.1×10^6 NK92 cells) does the source give for “SHP-2: SH2 domain containing tyrosine phosphatase” here?
Answer: 92 ng

Question: And the “cellular concentration compared with KD” value (NK92 cells)?
Answer: approximately an order of magnitude higher than the KD

Question: What about the “concentration of SHP-2 compared with SAP / the adaptors” value (NK92 cells, b1: adaptors SAP and EAT-2, b49: SAP) of the same substance?
Answer: in the order of a magnitude higher; also recorded: an order of magnitude higher concentration

Question: What about the Concentration (estimated total cellular concentration in NK92, cell diameter 10 μm, volume 523 fL) of the same substance?
Answer: 24 µM

Question: And the “Mean (ng)/10^6 cells” value (per 10^6 NK92 cells, mean, n = 3 (SAP, EAT-2), n = 2 (SHP-2))?
Answer: 858 ng

Question: What about the “Mass (ng)/10^6 cells” value (per 10^6 NK92 cells, replicate 1 (first value)) of the same substance?
Answer: 928 ng

Question: And the “Mass (ng)/10^6 cells” value (per 10^6 NK92 cells, replicate 2)?
Answer: 787 ng

Source: PMC3958483, “Fine Specificity and Molecular Competition in SLAM Family Receptor Signalling” (PLoS ONE, 2014)
